# These are yes or no findings as the source states them, for the method shown. In cells and extracts the contact can be indirect. A yes stands for co-enrichment or nearness to the bait. Other partners may have been found.
# B1: MAGEB2 (found by mass spectrometry in the ZNF276 immunoprecipitate) (protein, UniProt O15479 1-319)
# chain: MPRGQKSKLRAREKRRKARDETRGLNVPQVTEAEEEEAPCCSSSVSGGAASSSPAAGIPQEPQRAPTTAAAAAAGVSSTKSKKGAKSHQGEKNASSSQASTSTKSPSEDPLTRKSGSLVQFLLYKYKIKKSVTKGEMLKIVGKRFREHFPEILKKASEGLSVVFGLELNKVNPNGHTYTFIDKVDLTDEESLLSSWDFPRRKLLMPLLGVIFLNGNSATEEEIWEFLNMLGVYDGEEHSVFGEPWKLITKDLVQEKYLEYKQVPSSDPPRFQFLWGPRAYAETSKMKVLEFLAKVNGTTPCAFPTHYEEALKDEEKAGV
# Target: T1, ZNF276 (bait of the immunoprecipitation plus mass spectrometry) (UniProt Q8N554)
# T1 sequence: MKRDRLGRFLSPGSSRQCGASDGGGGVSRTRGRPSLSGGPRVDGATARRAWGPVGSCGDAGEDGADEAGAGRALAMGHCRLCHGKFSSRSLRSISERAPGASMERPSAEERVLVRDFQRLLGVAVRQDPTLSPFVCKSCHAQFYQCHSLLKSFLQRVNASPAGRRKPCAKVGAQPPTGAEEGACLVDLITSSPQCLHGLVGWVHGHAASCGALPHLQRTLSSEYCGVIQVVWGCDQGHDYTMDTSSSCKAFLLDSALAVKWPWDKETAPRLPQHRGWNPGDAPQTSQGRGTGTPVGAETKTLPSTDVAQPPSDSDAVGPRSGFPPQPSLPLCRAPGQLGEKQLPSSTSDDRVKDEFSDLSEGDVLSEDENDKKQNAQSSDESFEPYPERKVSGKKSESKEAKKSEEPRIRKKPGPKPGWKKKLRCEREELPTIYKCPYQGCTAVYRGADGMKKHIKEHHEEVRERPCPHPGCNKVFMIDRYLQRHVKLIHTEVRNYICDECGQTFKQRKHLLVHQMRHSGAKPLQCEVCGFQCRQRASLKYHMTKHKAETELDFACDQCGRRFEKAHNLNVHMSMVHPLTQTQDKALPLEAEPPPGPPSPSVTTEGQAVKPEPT
# Assay: affinity purification with mass spectrometry; immunoprecipitation (IP) of ZNF276 plus mass spectrometry; non-specific proteins of the control group removed; cells and antibody not stated
binder,measurement,value
B1,binding,binds

# Source: PMC9463175
